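Whole-cell assay for inhibitors of Mycobacterium tuberculosis growth, labelled Cornell in the record; the read-out is not stated. The concentration is filed as 10 mM, unlikely as a test dose, so the dose is not known. The record gives no direction; compounds strong in two other growth screens of this library score well above the rest, so higher reads as stronger inhibition. About 53,000 compounds were tested under these conditions; 1.7% (about 900) showed 50% or more at least once.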

Each number is a percent effect as filed.
The record does not define 0% and 100%; most values in the screen are far below 50% and negative numbers occur (in some assays of this library far below -100).
Compounds were drawn at random from those tested, without regard to their results.

For O=C(c1coc(COc2cccc3cnccc23)n1)N1CCSCC1 the result was 14.97%. CS(=O)(=O)N1CCCC1c1cccc(Nc2nccs2)n1 (stereo unspecified) read 8.518%. Cc1cc(C(=O)NC(C)CC(=O)c2cccs2)n(C)n1 (stereo unspecified) gave -13.09%. Result for O=C(O)C(F)(F)F.O=C(O)C(F)(F)F.[H][C@@]12CN(Cc3ccco3)C[C@]1([H])OCCN2CC1CCCO1 (stereo partly specified) was 13.36%. COCCCN1CC2(CCN(C(=O)c3ccc(=O)n(C)c3)CC2)CC1=O gave -25.79%.

COC(=O)c1cccc(C(=O)N(C)Cc2cccc(O)c2)c1 read -3.646%. O=C(O)C(F)(F)F.O=C(O)C(F)(F)F.O=C(O)CN1CCC(F)(F)C2(CCN(c3ccccc3)C2)C1 (stereo unspecified) read 37.92%. Result for COc1cccc(NC(=O)NCC(C)(O)CCSC)c1OC (stereo unspecified) was 11.44%. Cc1cc(CN(C)C(=O)NCC2CCS(=O)(=O)C2)no1 (stereo unspecified) read -11.08%. With Cc1ccc(C(=O)NC2CCN(C)CC2)cc1N(C)S(C)(=O)=O the screen gave 14.06%.

NC(=O)NC(=O)CCN1CCCC1c1cccc2c1OCCO2 (stereo unspecified) gave 6.801%. CC1CCCN1Cc1cccc(C(=O)Nc2ccc3[nH]c(=O)oc3c2)c1 (stereo unspecified) gave -15.98%. Result for [H][C@]12CC[C@]([H])(CN(Cc3cccnc3)C1)N(C(=O)Nc1ccc(F)cc1)C2 was 5.696%. With C/C=C(\C)CN1CCC2(CCC(=O)N2OCc2ccccc2F)CC1 the screen gave -51.4%. O=C(c1cn(Cc2ccccc2)c2ncccc12)N1CCOCC1 gave 6.262%.

Cc1cc(C)n(CC2CCCCN2C(=O)c2ccc3[nH]nnc3c2)n1 (stereo unspecified) gave 15.79%. Result for O=S1(=O)CCC(CNS(=O)(=O)N2CCc3ccccc3C2)C1 (stereo unspecified) was 15.09%. For CS(=O)(=O)NCC1CCN(C(=O)Oc2ccccc2)CC1 the result was 6.389%. Result for C1CCC(CNC2CCSCC2)(N2CCOCC2)CC1 was -24.77%. Result for CC(=O)NCCc1ccc(S(=O)(=O)N(C)C(C)CC(C)C)s1 (stereo unspecified) was 4.299%.

COc1ccc(C(=O)NC2CC2)c(OC2CCN(CCCSC)CC2)c1 read -5.224%. For O=C(C1SCCc2sccc21)N1CCCCC1 (stereo unspecified) the result was -35.27%. Result for CCc1nnc(CN(C)Cc2nc(-c3ccccc3Cl)oc2C)o1 was 15.12%. Result for Cc1cc(C)c(S(=O)(=O)Nc2c(C)nc(N3CCCC3)nc2C)cc1C was 36.77%. For COc1ccc(S(=O)(=O)C(C)C(=O)NCCOc2cccc(C)c2)cc1 (stereo unspecified) the result was 9.822%.

Result for c1ccc(CN2CCN(C3CCOC4(CCOCC4)C3)CC2)nc1 (stereo unspecified) was 1.562%. For CC(=O)N1C[C@H](NS(=O)(=O)N2CCOCC2)[C@@H](c2ccc(C)o2)C1 the result was -22.26%. CCOCC1CN(Cc2ccoc2)Cc2ncn(CC3CC3)c21 (stereo unspecified) gave 16.13%. For CCc1ccc(CN2CCC3(CC2)NC(=O)CC3c2ccncc2)o1.O=C(O)C(F)(F)F.O=C(O)C(F)(F)F (stereo unspecified) the result was 6.964%. With Cc1n[nH]c(C)c1CCN(C)C(=O)c1ccc(CN2CCCCC2)cc1 the screen gave -3.887%.

[H][C@@]12CCCN1C[C@@H](CCSC)N(Cc1cnn(CC)c1C)C2 gave -0.4422%. With [H][C@]12CCC[C@@]1(COCc1cccnc1)CN(C(=O)Cc1ccco1)C2 the screen gave 2.972%. NC(=O)c1cc(C2CCCN(CCOCC(F)(F)F)C2)n[nH]1 (stereo unspecified) read -10.75%. For COCCNC(=O)NCc1cc(-c2cccs2)n(C2CCCC2)n1 the result was -32.64%. For CC(=O)N1CCc2nc(-c3ccc(F)cc3)nc(NC(C)C)c2CC1 the result was -9.85%.

CC(c1nc(-c2ccccc2)no1)N1CCc2c(ncn2C2CC2)C1 (stereo unspecified) read -2.85%. O=C(NCC1CCC1)c1ccc(-n2ccnc2)nn1 read 16.02%. For CN(Cc1nccn1C)C(CO)c1cccc(Br)c1 (stereo unspecified) the result was 20.09%. Result for Cc1cc(C)n(CC2CN(Cc3ccc4c(c3)OCCO4)CCO2)n1 (stereo unspecified) was -47.79%. With CC(C)C1CN(C(=O)c2ccc(C(N)=O)cc2)CCS1 (stereo unspecified) the screen gave 13.88%.

Result for CCn1cnc(NC(=O)N2CCC(c3ccc(Cl)cc3)C2)n1 (stereo unspecified) was 3.474%. Result for Cc1ccccc1-n1c(C)cc(C(=O)N2CCn3c(C)nnc3C2)c1C was -23.84%. Result for COc1nccnc1N1CCN(Cc2cccc(C)c2)C(=O)C1 was 34.17%. For Cc1nn(CN(Cc2ccsc2)C2CC2)c(=O)c2noc(C)c12 the result was 8.068%. CN(C)CCN1CCc2c(nnn2C)C1COCc1ccccc1.O=C(O)C(F)(F)F.O=C(O)C(F)(F)F (stereo unspecified) read -26.53%.

For O=C(NC1CCCCNC1=O)c1cc2ccccc2[nH]c1=O (stereo unspecified) the result was -26.85%. For O=C(O)C(F)(F)F.[H][C@@]12CCN(CC3CC3)[C@@]1([H])CCN2C(=O)c1cccn1C the result was 18.29%. With CN(C)Cc1noc2c1CN(Cc1ccc[nH]1)CC2 the screen gave -13.6%.

Some entries from above, unchanged:

| compound | effect |
|---|---|
| `COCCNC(=O)NCc1cc(-c2cccs2)n(C2CCCC2)n1` | -32.64 |
| `NC(=O)c1cc(C2CCCN(CCOCC(F)(F)F)C2)n[nH]1` (stereo unspecified) | -10.75 |
| `O=C(c1coc(COc2cccc3cnccc23)n1)N1CCSCC1` | 14.97 |

The values are deposited in ChEMBL (CHEMBL3988442, “University of Dundee, Small-Polar-MMV Screening Library” (2021)).